At least one compound was matched to its structure with a doubt left.
Test system: ovariectomized rat to which yohimbine is administered (yohimbine administration model)
Assay: yohimbine administration model (hot flash model): skin temperature of the tail base of the rat
Assay type: in vivo
Settings: ovariectomized female SD rats; 10 mg/kg body weight oral in gum arabic solution (1% by weight), 30 minutes before yohimbine 2 mg/kg s.c.; measured every 5 minutes to 80 minutes; FIG. 2

`Cc1ccc(-c2cc(C(F)(F)F)nn2-c2ccc(S(N)(=O)=O)cc2)cc1` [celecoxib] was tested, and the “rise in skin temperature (hot flash) of the tail base of the rat, compared to the control group” value was “rose with time without the suppression of yohimbine action”.
